In the assay the target is T1, Flag-tagged EGFL7 (UniProt Q9QXT5).
T1 sequence: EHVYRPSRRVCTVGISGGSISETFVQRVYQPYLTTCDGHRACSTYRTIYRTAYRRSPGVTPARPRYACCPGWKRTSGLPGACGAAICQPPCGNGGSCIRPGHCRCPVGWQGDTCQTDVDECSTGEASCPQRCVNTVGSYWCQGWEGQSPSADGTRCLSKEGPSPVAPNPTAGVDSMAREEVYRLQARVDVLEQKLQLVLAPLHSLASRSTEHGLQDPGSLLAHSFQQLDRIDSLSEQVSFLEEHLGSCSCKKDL
Nature of the assay: co-IP.

By UniProt entry, the sequences of proteins in these tests, tags left out. Where a name states a change or a piece, a line headed by the entry shows the natural chain unless it says otherwise. Residues count along the entry.
UniProt Q3V0T4: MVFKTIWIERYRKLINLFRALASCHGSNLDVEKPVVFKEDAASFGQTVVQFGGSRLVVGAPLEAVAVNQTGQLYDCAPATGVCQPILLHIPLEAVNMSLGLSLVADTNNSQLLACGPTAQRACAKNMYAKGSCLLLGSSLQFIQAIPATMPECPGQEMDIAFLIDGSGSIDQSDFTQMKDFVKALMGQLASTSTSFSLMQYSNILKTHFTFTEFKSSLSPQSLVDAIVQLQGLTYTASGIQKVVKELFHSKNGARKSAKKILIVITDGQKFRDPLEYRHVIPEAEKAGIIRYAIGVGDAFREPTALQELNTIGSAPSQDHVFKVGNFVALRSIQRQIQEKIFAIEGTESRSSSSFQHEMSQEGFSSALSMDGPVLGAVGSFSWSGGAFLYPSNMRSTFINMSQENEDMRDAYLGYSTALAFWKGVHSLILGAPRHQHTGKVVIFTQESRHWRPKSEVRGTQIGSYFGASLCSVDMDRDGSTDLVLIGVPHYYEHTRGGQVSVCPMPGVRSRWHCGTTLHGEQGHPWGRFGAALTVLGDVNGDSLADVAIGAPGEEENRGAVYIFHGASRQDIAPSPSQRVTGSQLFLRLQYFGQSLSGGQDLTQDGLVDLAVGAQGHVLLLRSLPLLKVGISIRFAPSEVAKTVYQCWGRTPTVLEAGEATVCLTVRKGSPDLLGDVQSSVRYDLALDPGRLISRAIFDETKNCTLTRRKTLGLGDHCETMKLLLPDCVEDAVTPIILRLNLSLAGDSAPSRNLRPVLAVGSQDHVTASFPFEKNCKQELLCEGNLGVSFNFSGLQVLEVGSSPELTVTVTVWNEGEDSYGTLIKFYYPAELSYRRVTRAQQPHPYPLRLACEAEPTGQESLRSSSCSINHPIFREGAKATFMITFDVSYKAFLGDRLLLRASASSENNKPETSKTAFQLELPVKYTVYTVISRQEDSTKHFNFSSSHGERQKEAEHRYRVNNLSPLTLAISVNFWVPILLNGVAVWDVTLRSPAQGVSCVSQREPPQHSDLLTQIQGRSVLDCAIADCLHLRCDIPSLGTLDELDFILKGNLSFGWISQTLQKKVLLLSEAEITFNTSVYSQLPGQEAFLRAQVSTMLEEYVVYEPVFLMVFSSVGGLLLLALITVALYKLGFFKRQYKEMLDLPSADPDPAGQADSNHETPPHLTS
UniProt P11835, residues 24-771: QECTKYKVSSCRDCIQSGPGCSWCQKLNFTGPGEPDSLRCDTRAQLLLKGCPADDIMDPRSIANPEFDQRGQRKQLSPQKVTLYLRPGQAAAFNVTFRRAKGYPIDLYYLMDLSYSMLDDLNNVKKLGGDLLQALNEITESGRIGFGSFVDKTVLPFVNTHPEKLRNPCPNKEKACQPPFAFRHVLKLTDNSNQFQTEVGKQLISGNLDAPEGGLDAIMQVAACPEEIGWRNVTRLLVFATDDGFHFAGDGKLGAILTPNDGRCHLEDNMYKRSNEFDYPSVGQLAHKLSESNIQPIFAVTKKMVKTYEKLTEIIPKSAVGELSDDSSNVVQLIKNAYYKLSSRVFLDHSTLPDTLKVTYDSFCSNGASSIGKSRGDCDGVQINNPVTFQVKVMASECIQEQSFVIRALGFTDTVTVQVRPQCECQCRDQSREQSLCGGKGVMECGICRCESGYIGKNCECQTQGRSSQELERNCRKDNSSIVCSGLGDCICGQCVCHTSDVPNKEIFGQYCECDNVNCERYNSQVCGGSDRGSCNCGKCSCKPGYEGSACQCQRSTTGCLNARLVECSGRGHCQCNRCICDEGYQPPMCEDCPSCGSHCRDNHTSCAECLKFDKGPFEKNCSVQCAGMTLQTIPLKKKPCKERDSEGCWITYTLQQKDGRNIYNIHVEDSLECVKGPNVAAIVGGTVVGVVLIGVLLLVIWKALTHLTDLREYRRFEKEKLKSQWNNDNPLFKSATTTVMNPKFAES
UniProt P24063: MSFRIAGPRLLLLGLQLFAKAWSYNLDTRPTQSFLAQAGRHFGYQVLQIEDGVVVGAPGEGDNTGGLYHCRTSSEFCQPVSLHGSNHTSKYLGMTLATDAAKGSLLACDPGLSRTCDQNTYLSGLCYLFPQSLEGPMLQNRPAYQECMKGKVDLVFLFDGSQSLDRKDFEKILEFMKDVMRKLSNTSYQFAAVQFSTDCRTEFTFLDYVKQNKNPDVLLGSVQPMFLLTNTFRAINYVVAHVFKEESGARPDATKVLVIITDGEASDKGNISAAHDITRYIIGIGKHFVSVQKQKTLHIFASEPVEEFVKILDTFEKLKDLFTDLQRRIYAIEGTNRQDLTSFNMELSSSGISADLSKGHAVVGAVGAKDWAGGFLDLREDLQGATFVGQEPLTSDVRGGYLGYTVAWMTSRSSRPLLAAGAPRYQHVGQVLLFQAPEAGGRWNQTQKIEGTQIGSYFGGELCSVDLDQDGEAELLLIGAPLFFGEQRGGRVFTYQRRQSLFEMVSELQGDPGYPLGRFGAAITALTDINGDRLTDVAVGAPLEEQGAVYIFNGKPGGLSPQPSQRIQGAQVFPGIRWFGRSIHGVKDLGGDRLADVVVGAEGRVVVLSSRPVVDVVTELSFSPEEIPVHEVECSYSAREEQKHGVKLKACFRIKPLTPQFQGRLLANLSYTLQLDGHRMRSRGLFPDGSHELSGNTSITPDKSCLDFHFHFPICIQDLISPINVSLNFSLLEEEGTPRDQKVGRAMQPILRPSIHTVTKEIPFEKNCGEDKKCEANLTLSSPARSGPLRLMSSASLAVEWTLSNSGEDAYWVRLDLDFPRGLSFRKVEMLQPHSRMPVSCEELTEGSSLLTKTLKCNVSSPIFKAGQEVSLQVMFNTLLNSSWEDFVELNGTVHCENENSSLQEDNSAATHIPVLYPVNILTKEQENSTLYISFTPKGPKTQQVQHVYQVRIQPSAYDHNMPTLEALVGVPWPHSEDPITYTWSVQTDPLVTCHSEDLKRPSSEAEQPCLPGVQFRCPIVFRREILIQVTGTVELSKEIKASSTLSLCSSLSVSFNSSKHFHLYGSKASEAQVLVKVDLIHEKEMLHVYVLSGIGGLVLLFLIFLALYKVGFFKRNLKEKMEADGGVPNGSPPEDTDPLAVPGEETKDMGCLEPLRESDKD

No constants are given. Whether binding was seen depends on the method and setting. In cells and extracts the contact can be indirect. Some binding calls cover weakened binding; strength is not graded here. Where a sequence is shown, tags or fusion partners need not be part of it.

With “ITGAD-ITGB2 (from UniProt Q3V0T4 27-1168; P11835 24-771) (complex)”, the binding entry is “binds weakly”. On to “ITGAL-ITGB2, lymphocyte function-associated antigen 1 (LFA-1) (from UniProt P24063 24-1162; P11835 24-771) (complex)”, for which the binding entry is on record as “binds”. Turning to “V5-tagged ITGB2 (from UniProt P11835 24-771) (receptor)”, the binding entry was “binds”.

B1: V5-tagged ITGB3 (receptor, UniProt O54890 26-787)
chain: ESNICTTRGVNSCQQCLAVSPVCAWCSDETLSQGSPRCNLKENLLKDNCAPESIEFPVSEAQILEARPLSSKGSGSSAQITQVSPQRIALRLRPDDSKIFSLQVRQVEDYPVDIYYLMDLSFSMKDDLSSIQTLGTKLASQMRKLTSNLRIGFGAFVDKPVSPYMYISPPQAIKNPCYNMKNACLPMFGYKHVLTLTDQVSRFNEEVKKQSVSRNRDAPEGGFDAIMQATVCDEKIGWRNDASHLLVFTTDAKTHIALDGRLAGIVLPNDGHCHIGTDNHYSASTTMDYPSLGLMTEKLSQKNINLIFAVTENVVSLYQNYSELIPGTTVGVLSDDSSNVLQLIVDAYGKIRSKVELEVRDLPEELSLSFNATCLNNEVIPGLKSCVGLKIGDTVSFSIEAKVRGCPQEKEQSFTIKPVGFKDSLTVQVTFDCDCACQAFAQPSSPRCNNGNGTFECGVCRCDQGWLGSMCECSEEDYRPSQQEECSPKEGQPICSQRGECLCGQCVCHSSDFGKITGKYCECDDFSCVRYKGEMCSGHGQCNCGDCVCDSDWTGYYCNCTTRTDTCMSTNGLLCSGRGNCECGSCVCVQPGSYGDTCEKCPTCPDACSFKKECVECKKFNRGTLHEENTCSRYCRDDIEQVKELTDTGKNAVNCTYKNEDDCVVRFQYYEDTSGRAVLYVVEEPECPKGPDILVVLLSVMGAILLIGLATLLIWKLLITIHDRKEFAKFEEERARAKWDTANNPLYKEATSTFTNITYRGT
B1: the binding entry was “binds”.

Source of the values: paper doi:10.1101/2025.07.28.667281.
